Reference: patent US5248690A, “Method for treatment of neurodegenerative diseases” (R. J. Reynolds Tobacco Company, priority 1992, dated 1993)
At least one read-out could not be matched to a standard name with certainty. At least one compound was matched to its structure with a doubt left.

Tested on: synaptosomes from the striatal area of rat brain
Test: [3H]-Dopamine release from rat striatal synaptosomes
Format: biochemical, Sprague-Dawley rats
Conditions: 0.2 ml of a 10 μM solution of ligand, relative to an equal concentration of (S)-(-)-nicotine

Compound	Dopamine Release (percent release relative to (S)(-)-nicotine) [%]
CN1CCCC1c1ccccc1 (racemic) [1-methyl-2-phenylpyrrolidine]	20
Clc1ccc(CN2CCCC2)cc1 [1-(p-chlorophenyl)methylpyrrolidine, 1-(p-chlorophenyl) methylpyrrolidine]	48
c1ccc(CCCN2CCCC2)cc1 [1-phenylpropylpyrrolidine]	13
